Values from PubChem BioAssay AID686938 (Drosophila RNAi Screening Center, 2013)
Test: 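Looking for CRAC channel components and the factors controlling them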 (primary screen). System: Drosophila S2R+ cells. Knock-down reagent: long dsRNA against Drosophila genes, about 0.25 µg dsRNA per well, roughly 10,000 cells. Timing: 5 days of knock-down before the calcium assay. Conditions: thapsigargin (SERCA pump blocker) to empty calcium stores; entry signal taken 4 min after adding it. Detection: 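Per-well fluo-4 fluorescence in two replicates, unnormalised, measured in resting cells and 4 min after store depletion by the SERCA blocker thapsigargin; ratio of the two present in few wells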. Reading the numbers: calcium entry signal: higher = stronger calcium signal after store depletion; entry to resting ratio: higher = more calcium entry relative to resting level; resting calcium signal: higher = higher resting calcium signal. Call rule: 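Called when the plate z-score of the entry-to-rest ratio, mean of duplicates, falls below −3; wells with low overall dye signal (Fmax z below −2) or more than five off-targets excluded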. Meaning of the calls: active = strongly reduced calcium entry; inactive = no strong reduction.
In all, the deposit lists about 23,000 reagents; below is a random part of those that have a named target and a result. Of all reagents, 75 (0.33%) are marked active. 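Raw plate signals without normalisation; calls rest on plate z-scores that were not deposited; ratio present for only 364 wells.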 Unmarked entries are inactive. The numbers tell different reagents against one gene apart. Not stated in the record: the dose of the treatment.

The opening 8 entries, ahead of the listing:
gene,dsRNA no.,"calcium entry signal, replicate 1 (fluorescence units)","calcium entry signal, replicate 2 (fluorescence units)",entry to resting ratio,"resting calcium signal, replicate 1 (fluorescence units)","resting calcium signal, replicate 2 (fluorescence units)"
CG13407,1,4.61e7,4.69e7,,6.21e7,2.13e7
SmydA-1,1,3.88e7,4.50e7,,1.70e7,2.02e7
awd,1,2.67e7,4.21e7,1.9,1.38e7,1.73e7
CG11334,1,4.54e7,4.76e7,,2.36e7,2.10e7
CG11334,2,3.21e7,3.58e7,2,1.59e7,1.50e7
CG14110,1,2.77e7,4.57e7,,1.42e7,1.86e7
lambdaTry,1,2.98e7,4.25e7,,1.50e7,1.80e7
pix,1,1.30e7,1.71e7,,8.90e6,1.18e7

The list itself, from the first entry:
gene,dsRNA no.,"calcium entry signal, replicate 1 (fluorescence units)","calcium entry signal, replicate 2 (fluorescence units)",entry to resting ratio,"resting calcium signal, replicate 1 (fluorescence units)","resting calcium signal, replicate 2 (fluorescence units)"
CG13407,1,4.61e7,4.69e7,,6.21e7,2.13e7
SmydA-1,1,3.88e7,4.50e7,,1.70e7,2.02e7
awd,1,2.67e7,4.21e7,1.9,1.38e7,1.73e7
CG11334,1,4.54e7,4.76e7,,2.36e7,2.10e7
CG11334,2,3.21e7,3.58e7,2,1.59e7,1.50e7
CG14110,1,2.77e7,4.57e7,,1.42e7,1.86e7
lambdaTry,1,2.98e7,4.25e7,,1.50e7,1.80e7
pix,1,1.30e7,1.71e7,,8.90e6,1.18e7
CG3568,1,3.56e7,3.97e7,,1.84e7,1.79e7
prtp,1,2.89e7,5.10e7,,1.37e7,2.43e7
prtp,2,4.33e7,4.16e7,,2.69e7,1.94e7
DCP2,1,3.85e7,2.87e7,,1.84e7,1.46e7
DCP2,2,4.22e7,4.91e7,,2.24e7,3.65e7
tw,1,3.85e7,5.46e7,,1.75e7,2.36e7
CG5003,1,2.90e7,4.63e7,,1.55e7,1.88e7
Keap1,1,4.58e7,3.50e7,,2.20e7,1.72e7
PGRP-SC1b,1,4.60e7,4.10e7,,1.92e7,1.91e7
CG7183,1,4.23e7,4.10e7,,1.88e7,1.78e7
CG11380,1,5.19e7,5.85e7,2,2.64e7,2.82e7
CG11380,2,3.56e7,3.20e7,,1.76e7,1.50e7
Hr51,1,3.40e7,3.54e7,,1.81e7,1.74e7
Hr51,2,2.83e7,4.46e7,,1.39e7,2.12e7
CG33270,1,3.94e7,4.75e7,,2.24e7,2.53e7
CG14837,1,2.98e7,3.71e7,,1.39e7,1.47e7
CG1827,1,3.48e7,3.02e7,,1.57e7,1.49e7
crol,1,4.17e7,,,2.14e7,
crol,2,3.39e7,3.20e7,,1.90e7,1.49e7
Ae2,1,3.94e7,2.96e7,,2.03e7,1.59e7
Ae2,2,5.39e7,3.74e7,,3.48e7,1.54e7
Ugt37C1,1,3.54e7,3.48e7,,1.44e7,1.64e7
CG8097,1,2.59e7,3.36e7,,1.38e7,1.53e7
gzl,1,4.76e7,6.17e7,,1.95e7,2.73e7
CG32847,1,3.77e7,3.50e7,,2.06e7,1.59e7
ppk23,1,2.12e7,2.78e7,,1.26e7,1.41e7
CG30416,1,3.70e7,3.90e7,,2.03e7,1.71e7
sqh,1,3.25e7,3.13e7,,1.68e7,1.66e7
CG14664,1,3.83e7,2.21e7,,1.81e7,9.37e6
CG11983,1,4.91e7,3.93e7,,2.26e7,1.77e7
CG7341,1,3.92e7,5.48e7,,1.85e7,3.66e7
CG31406,1,2.83e7,4.42e7,,1.47e7,2.24e7
CG5446,1,3.71e7,2.74e7,,1.75e7,1.27e7
CG9114,1,2.17e7,2.27e7,,1.20e7,1.06e7
Eig71Eg,1,5.79e7,6.65e7,,2.44e7,2.64e7
CG3009,1,2.76e7,2.63e7,,1.21e7,1.25e7
CG6508,1,2.87e7,3.36e7,,1.31e7,1.51e7
SP2353,1,4.29e7,4.39e7,,1.76e7,2.05e7
CG31029,1,3.33e7,5.44e7,,1.61e7,2.30e7
rost,1,4.60e7,,,2.12e7,
Hsp23,1,5.41e7,3.84e7,,3.49e7,1.57e7
Ret,1,3.17e7,,,1.49e7,
Ret,2,6.35e7,5.27e7,,2.88e7,2.19e7
Cwc25,1,2.15e7,3.25e7,,1.34e7,1.61e7
Reg-2,1,4.49e7,4.04e7,,2.18e7,1.93e7
chif,1,3.10e7,,,1.91e7,
CG16952,1,2.96e7,3.23e7,,1.60e7,1.64e7
mamo,1,1.49e7,2.23e7,,9.72e6,1.34e7
mamo,2,2.92e7,2.30e7,,1.59e7,1.10e7
mamo,3,2.72e7,2.79e7,,1.50e7,1.36e7
mamo,4,3.26e7,2.83e7,,1.64e7,1.41e7
mamo,5,2.83e7,3.59e7,,1.58e7,1.69e7
mamo,6,3.11e7,3.17e7,,1.50e7,1.63e7
CG13385,1,3.54e7,4.19e7,,1.67e7,1.90e7
CG12301,1,3.22e7,3.18e7,,1.65e7,2.44e7
pncr003:2L (retired record),1,3.22e7,6.87e7,,1.46e7,2.80e7
BCL7-like,1,3.88e7,4.27e7,,1.90e7,1.94e7
Obp58c,1,3.90e7,4.11e7,,1.95e7,1.85e7
Acp53C14b,1,3.78e7,4.90e7,,1.79e7,2.50e7
CG31199,1,3.86e7,3.71e7,,1.96e7,1.64e7
CG8671,1,4.09e7,5.08e7,,2.10e7,2.29e7
CG8671,2,3.77e7,5.36e7,,1.90e7,2.40e7
CG17010,1,4.68e7,,,2.29e7,
Septin1,1,4.75e7,3.86e7,,2.40e7,1.86e7
CG7582,1,3.28e7,3.95e7,,1.61e7,1.69e7
CG15212,1,3.01e7,4.63e7,,1.46e7,2.15e7
l(3)73Ah,1,3.63e7,4.98e7,,1.72e7,2.21e7
